Measurements reported in PubChem BioAssay AID686943 (Drosophila RNAi Screening Center, 2013)
Assay: 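Search across the genome for regulators of signalling from receptor tyrosine kinase to ERK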 (primary screen). System: Drosophila S2R+ haemocyte-like cells expressing YFP-tagged ERK (Rolled). Knock-down reagent: long dsRNA against Drosophila genes. Challenge: insulin stimulation versus unstimulated cells; dose and duration not given. Read-out: 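Antibody staining for doubly phosphorylated ERK divided by ERK-YFP signal, as plate z-scores, in insulin-treated and untreated cells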. Reading the numbers: replicate 1, z-score of dpERK with insulin and replicate 2, z-score of dpERK with insulin: higher = more active ERK per ERK-YFP after insulin; replicate 1, z-score of dpERK under basal conditions: higher = more basal active ERK per ERK-YFP; replicate 1, z-score of ERK-YFP with insulin: higher = more YFP-tagged ERK signal.
In all, the deposit lists about 23,000 reagents; this is an unselected part of those with a known target gene and a result. 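Extra replicates exist only for a retested subset of genes; insulin dose and duration not given; both raised and lowered dpERK matter.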 Reagents against one gene are numbered here. Names joined by + are all predicted targets of the reagent. Not stated in the record: the amount of reagent, the time to read-out.

| target gene | dsRNA no. | replicate 1, z-score of dpERK with insulin | replicate 2, z-score of dpERK with insulin | replicate 1, z-score of dpERK under basal conditions | replicate 1, z-score of ERK-YFP with insulin |
| --- | --- | --- | --- | --- | --- |
| Npc2c (Niemann-Pick type C-2c) | 1 | -0.25 | 0.7 | -0.05 | -0.38 |
| CG42827 | 1 | 0.86 | -1.41 | -0.26 | -0.57 |
| Ric (Ras-related protein interacting with calmodulin) | 1 | -1.05 | -0.04 | 0.08 | 0.77 |
| cpb (capping protein beta) | 1 | -0.16 | -0.42 | -0.43 | 1.03 |
| CG31807 | 1 | 0.57 | 0.87 | 0.55 | -0.46 |
| Dpck (Dephospho-CoA kinase) | 1 | -1.46 | -0.33 | -0.98 | -0.12 |
| Adh + Adhr | 1 | 0.26 | -0.98 | -0.55 | -1 |
| Adh + Adhr | 2 | 1.09 | 0.51 | -0.09 | -0.4 |
| alpha-Est7 (alpha-Esterase-7) | 1 | 0.21 | 0.78 | 0.08 | 0.32 |
| CG13855 | 1 | -0.3 | -0.39 | -0.07 | 0.36 |
| Desi (Desiccate) | 1 | 0.2 | -0.09 | 0.15 | -0.17 |
| mthl6 (methuselah-like 6) | 1 | -0.06 | -0.44 | – | 0.21 |
| Ir20a (Ionotropic receptor 20a) | 1 | -0.27 | 0.5 | -0.72 | 0.19 |
| psidin (phagocyte signaling impaired) | 1 | 0.25 | -0.15 | 0.17 | -0.62 |
| CG31008 | 1 | -0.11 | 0.15 | -0.03 | 1.34 |
| mtgo (miles to go) | 1 | -0.47 | 0.6 | 1.43 | -0.16 |
| mtgo (miles to go) | 2 | 0.99 | -0.81 | -2.11 | 0.39 |
| mtgo (miles to go) | 3 | 1.05 | 1.36 | 0.76 | 0.69 |
| mtgo (miles to go) | 4 | -1.02 | -0.2 | 0.81 | -1.21 |
| mtgo (miles to go) | 5 | 0.86 | 0.36 | -1.75 | -0.34 |
| ais (aramis) | 1 | -0.11 | -0.64 | 0.78 | 0.31 |
| CheB93a (Chemosensory protein B 93a) | 1 | -0.16 | 0.56 | 0.02 | 0.27 |
| CG43052 | 1 | 0.07 | 0.64 | 1.19 | 1.07 |
| CG32582 (retired record) | 1 | -0.11 | 0.55 | -0.06 | 0.5 |
| mle (maleless) | 1 | -0.52 | 0.64 | 0.04 | 1.42 |
| Ubc6 (Ubiquitin conjugating enzyme 6) | 1 | -0.5 | -1.78 | -2.61 | 6.39 |
| gsb (gooseberry) | 1 | 0.39 | 0.45 | 0.25 | -0.06 |
| Yip1d1 (Yip1 domain-containing 1) | 1 | 0.81 | 0.69 | -0.77 | 0.5 |
| asRNA:CR42547 + CG15674 | 1 | 0.72 | 0.92 | 0.6 | 0.23 |
| scramb1 (scramblase 1) | 1 | -0.29 | -0.7 | 0.17 | -0.3 |
| scramb1 (scramblase 1) | 2 | 0.46 | 0.16 | -1.2 | 0.51 |
| scramb1 (scramblase 1) | 3 | -0.08 | -0.17 | -0.22 | 0.13 |
| CG15717 | 1 | -0.42 | -0.16 | -0.3 | 0.53 |
| bchs (blue cheese) | 1 | -0.22 | -0.41 | -0.01 | 0.82 |
| CG33773 | 1 | 0.18 | -0.09 | 0.05 | 0.18 |
| AstC (Allatostatin C) | 1 | 0.52 | 0.17 | 0.54 | -0.61 |
| CG32148 | 1 | 0.26 | 1.05 | -1.76 | -0.58 |
| HP4 (Heterochromatin protein 4) | 1 | 0.04 | -0.05 | 0.59 | -0.09 |
| dtr (defective transmitter release) | 1 | 0.09 | 0.48 | 0.37 | 0.21 |

A few values from the entries so far:
Value of bchs (blue cheese) in “replicate 1, z-score of dpERK with insulin”: -0.22
Result for Dpck (Dephospho-CoA kinase) under “replicate 1, z-score of dpERK under basal conditions”: -0.98
Under “replicate 1, z-score of ERK-YFP with insulin”, HP4 (Heterochromatin protein 4) is entered as -0.09
Result for alpha-Est7 (alpha-Esterase-7) under “replicate 2, z-score of dpERK with insulin”: 0.78
Entry for CG43052 under “replicate 1, z-score of dpERK with insulin”: 0.07
